Test results from patent publication US20240010714A1 (MBRACE THERAPEUTICS, published 2024).
These are yes or no findings as the source states them, for the method shown. Binding seen in cells or lysates may run through a third protein. Some entries that bind do so weakly or less than the wild type.

Protein sequences, listed by entry. Tags and fused reporters are not part of them. Residues count along the entry.
UniProt G3I8R9, residues 19-654: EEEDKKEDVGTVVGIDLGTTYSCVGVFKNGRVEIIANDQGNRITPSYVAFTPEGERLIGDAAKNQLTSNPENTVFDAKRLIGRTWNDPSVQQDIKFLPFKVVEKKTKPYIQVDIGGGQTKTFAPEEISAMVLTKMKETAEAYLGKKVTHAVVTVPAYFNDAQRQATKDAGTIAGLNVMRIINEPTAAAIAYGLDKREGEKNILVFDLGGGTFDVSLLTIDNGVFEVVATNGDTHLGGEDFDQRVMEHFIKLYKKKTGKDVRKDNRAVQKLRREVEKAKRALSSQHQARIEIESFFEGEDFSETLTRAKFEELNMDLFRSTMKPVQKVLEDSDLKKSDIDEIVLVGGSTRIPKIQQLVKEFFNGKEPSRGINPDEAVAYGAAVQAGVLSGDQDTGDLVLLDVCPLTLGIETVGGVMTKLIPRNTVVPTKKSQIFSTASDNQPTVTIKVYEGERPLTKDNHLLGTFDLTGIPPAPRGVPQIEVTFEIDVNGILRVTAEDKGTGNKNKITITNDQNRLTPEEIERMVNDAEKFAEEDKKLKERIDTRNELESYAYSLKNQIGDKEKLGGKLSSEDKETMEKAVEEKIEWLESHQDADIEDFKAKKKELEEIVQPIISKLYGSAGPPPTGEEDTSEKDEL

Biological target: native GRP78 of CHO cells (endoplasmic reticulum protein) (Chinese hamster (CHO cells)) (UniProt G3I8R9)
Assay: co-purification from CHO supernatant, SDS-PAGE (extra band between 70-80 kDa)

B1: anti-GRP78 antibody clone B4 (antibody, IgG1, V domains shown)
VH: QVRLQESGPGLVKPSQTLSLTCTVSGGSISSGGYYWSWIRQHPGKGLEWIGYIYYSGSTYYNPSLESRVTISVDTSKNQFSLKLSSVTAADTAVYYCARYSSIDAFEIWGQGTMVTVSS
VL: SYVLTQPPSVSVAPGKTATITCGGDDIGSKSVHWYQQKPGQAPVLVVYDDGDRPSGIPERFSGSNSGNTATLAISRVEAGDEADYYCQVWDSSSDQYVFGSGTKLTVL
notes: Fully human mAb formatted as full-length IgG1; also called B4 mAb
  binding: binds

B2: anti-GRP78 antibody clone F6 (antibody, IgG1, V domains shown)
VH: QVQLQQSGPGLVKPPQTLSLTCAISGDSVSSNSAAWNWIRQSPSRGLEWLGRTYYRSKWYNDYAVSVKSRITINPDTSKNQFSLQLNSVTPEDTAVYYCARDPYYYDSSGYYYFDAFDIWGQGTMVTVSS
VL: SYELTQPHSVSVAPGQTARITCGGDNIGSKSVHWYQQRPGQAPVLVVYDDSDRPSGIPERFSGSNSENTATLTISGVEAGDEADYYCQVWDSTSHHVVFGGGTKLTVL
notes: Fully human mAb formatted as full-length IgG1; also called F6 mAb; Anti-GRP78 (F6)
  binding: binds
